Experimental data taken from patent US11779597B2, “Method of treating Parkinson's and other neurodegenerative diseases” (Vector Vitale IP LLC, priority 2019, dated 2023).
Marks after values point to notes of the source that are not given here. A unit is not stated for every read-out.

Key:
Type in all cases: in vivo
[1] = tested on: LPS rat models of Parkinson's disease; assay: Elevated plus maze; settings: SO + ^64Zn-asp, Group III
Text: Method. The elevated plus maze is a widely used behavioral assay for rodents that makes it possible to assess sedative or anxiogenic effects of agents and to define mechanisms underlying anxiety-related behavior, as well as to evaluate the motor activity of rats and levels of their exploratory activity that may correlate with the data collected in the open field test. Campos A C, et al., Braz J Psychiatry. 2013; 35 Suppl 2:S101-11. doi: 10.1590/1516-4446-2013-1139; Braun A A, et al., Neurobiol Learn Mem. 2012; 97(4):402-8. doi: 10.1016/j.nlm.2012.03.004). Behavior was assessed according to the following main parameters: the total distance travelled, the number of entries into each arm, the time spent in each arm, the total number of entries and percent of entries. […] Throughout the experiment, animals had free access to food and water. Before starting measurements, animals were given time to adapt to new an environment to reduce stress.
The entire apparatus was elevated 50 cm above the floor. The central part of the junction was a 10 cm square center region where an animal was started facing an open arm. The apparatus was illuminated by two LED bulbs, 60 watts each, hanging at a height of 2 m. An IP camera was used to record the location of rats and scoring was completed later using the MATLAB-based software. The statistical analysis was performed using GraphPad Prism. Significance was set at <0.005. The data collected from the open field were analyzed using One-way ANOVA (Tukey test or Dunnett test) and Unpaired t-test or Mann-Whitney.
Data analysis and interpretation. The test is based on the natural aversion of rats for open areas and their preference for closed areas of the apparatus. The levels of anxiety in animals are assessed as the total time spent in the open and closed arms. Animals that spend more time in the open arms have lower levels of anxiety compared to animals that prefer closed arms. In addition, like in an open field test, a novel environment in which an animal finds itself evokes conflict between fear and a desire to explore this environment. Therefore, the data collected from these two tests may correlate in the distance travelled and the time spent in the outer and inner perimeter. It is considered normal if during a 5-minute test, animals spend most of their time in the closed arms but also make a few entries to the open arms to explore. Accordingly, an increase in open arm entries is interpreted as a decreased anxiety in the animal. FIG. 51A and FIG. 51B show an example of analysis of a rat trajectory in the experimental arena.
(§1) On the 1st day of the experiment, rats were either operated to model hemi-parkinsonism or sham operated. From the 9th to the 18th day of the experiment, the animals were injected either deuterium-depleted water or the test substance, according to their allocation into groups, for 10 days. On the 8th day of the experiment (before initiation of treatment—apomorphine test I) and on the 21st day of the experiment (after the end of administering the test substance —apomorphine test II) the animals underwent an apomorphine test to analyze the development of hemi-parkinsonism which correlates with the number of destroyed dopaminergic neurons. In addition, a follow-up analysis of fecal water content was carried out, i.e., before the start of treatment on the 8th day after the operation, as well as on the 21st (after the end of treatment) and the 28th day (before autopsy). On the 24th day of the experiment, behavioral tests were carried out in all groups. All animals were weighed before autopsy.

[2] = Body weight in LPS rat models of parkinsonism; settings: sham-operated
Method: as §1, with “autopsy. During autopsy, ⅔ of animals from each group were sacrificed by cervical dislocation and brain and blood samples were collected for further biochemical and immunological tests. ⅓ of the animals were used for further immunohistochemical studies of the brain; for this purpose, under anesthesia, a procedure of fast, controlled and uniform fixation of the whole body of the animal was performed using 4% paraformaldehyde perfused through the heart of the rat to obtain the best preservation of the brain architecture for immunohistochemistry. Gage G J, et al., J Vis Exp. 2012 Jul. 30; (65).” for “autopsy.”

[3] = tested on: circulating monocytes and granulocytes; assay: Functional and phenotypic properties of circulating phagocytes in LPS rat models; settings: sham-operated animals
Method: as §1, with “autopsy. During autopsy, ⅔ of animals from each group were sacrificed by cervical dislocation and brain and blood samples were collected for further biochemical and immunological tests. ⅓ of the animals were used for further immunohistochemical studies of the brain; for this purpose, under anesthesia, a procedure of fast, controlled and uniform fixation of the whole body of the animal was performed using 4% paraformaldehyde perfused through the heart of the rat to obtain the best preservation of the brain architecture for immunohistochemistry. Gage G J, et al., J Vis Exp. 2012 Jul. 30; (65).” for “autopsy.”
To assess the anti-inflammatory and immunomodulating effects of the test substance, microglia and peritoneal macrophages were isolated. Phenotypic and functional features of peripheral blood phagocytes were evaluated without their fractioning (using whole blood). […]
Phagocytic activity of microglia, peritoneal macrophages and peripheral blood phagocytes was analyzed on a flow cytometer using FITC-labeled S. aureus Wood 46 cells as an object of phagocytosis. […]
Oxidative metabolism of phagocytes of various localization was analyzed by flow cytometry using the cell-permeant 2′7′-dichlorodihydrofluorescein-diacetate (DHP) (carboxy-H2DCFDA, Invitrogen, USA) which is converted by intracellular esterases to the nonfluorescent membrane-impermeable carboxy-H2DCF form.
The phenotypic profile of phagocytes of various localization was characterized by the expression of markers of functional maturity and metabolic polarization (CD206, CD80 and CD86), which was determined by flow cytometry and the use of monoclonal antibodies of appropriate specificity marked with fluorescent dyes (Abcam, Becton Dickinson).

[4] = tested on: LPS rat models of Parkinson's disease; assay: Open field test; settings: SO + ^64Zn-asp, Gr. III
Text: Method. The open field test is a technique commonly used to measure locomotor activity of rodents and their level of exploratory activity in an unfamiliar environment, as well as assess the levels of fear of novelty, anxiety or an increase in orientation response in rodents (Denenberg V H, et al., Physiology and Behavior, 1969; 4:403-406; Pellow S et al., J Neurosci Methods. 1985; 14(3):149-67). Behavioral patterns measured in the open field test include: distance travelled in the outer and inner perimeter, duration of time spent in the outer and inner perimeter, the total distance travelled and a percentage of the number of internal squares crossed compared to the total number of squares.
The open field was a square chamber 100×100 cm in size and with walls 60 cm high. The chamber was illuminated by two LED bulbs, 60 watts each, hanging at a height of 2 m. An IP camera was used to record the rodent movement. The MATLAB-based software was used to analyze the parameters. The statistical analysis was performed using GraphPad Prism. Significance was set at <0.005. The data collected from the open field were analyzed using One-way ANOVA (Tukey test or Dunnett test) and Unpaired t-test or Mann-Whitney.
Data analysis and interpretation. A novel environment in which an animal finds itself evokes conflict between fear and a desire to explore this environment. […]

^64Zn-enriched zinc aspartate [^64Zne-asp]
Number of entries into closed arms [1]: 5.875 ± 5.139
Number of entries into open arms [1]: 5.375 ± 5.317
Time spent in closed arms [1]: 256.1 ± 27.69 s
Time spent in open arms [1]: 14 ± 14.12 s
Total distance travelled, cm [1]: 317.1 ± 138.4 cm
Total number of entries [1]: 12.13 ± 10.02
body weight ([2]; 1st day): 185.91 ± 19.90
body weight ([2]; 28th day): 243.50 ± 27.52
body weight changes, % ([2]; between 1st and 28th day): 30** %
expression of phenotypic markers (CD80/86) by circulating phagocytes [3]: decrease
number of phagocytic cells in the peripheral blood [3]: did not have any effect
oxidative metabolism of circulating phagocytes [3]: did not have any significant effect
phagocytic activity of monocytes and granulocytes in the peripheral blood [3]: did not have any effect
Number of defecations [4]: 5.375 ± 2.875
Number of groomings [4]: 5.75 ± 2.121
